Results from the supplement of paper PMC6078165.
The reference is the same well before dosing, and untreated signal decays as well.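 Labels refer to human fibroblasts, largely primary: uterine (C12385, HUF), lung (H6013), bone (Hs27A), adrenal (HADF), skin (WS1), plus mammary HMF and breast cancer-associated Hs343T. Cancer lines are basal-like or mesenchymal-like triple-negative breast cancer. The paper counts as hits responses shifting over 3x the replicate standard deviation. The tissue of the other fibroblasts is not given here.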

Tested on: MDAMB231
Experiment: relative JC-1 red fluorescence (viability) vs pre-drug, coculture with fibroblast (fraction); higher = more viable cancer cells
Method: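 JC-1 labelled TNBC cells cocultured 1:1 (1,500 cells each) with CellTrace Violet stained primary or stromal fibroblasts in 384-well plates in FluoroBrite medium, treated with one of 42 anticancer drugs at 0.1, 1, 10 or 100 uM. JC-1 red fluorescence (mitochondrial integrity in cancer cells only) was read by plate reader every 8 h for 72 h. Values are normalised to each well's pre-drug value. The stock of one drug was tenfold lower, so its dose labels may be too high.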

C#Cc1cccc(Nc2ncnc3cc(OCCOC)c(OCCOC)cc23)c1 [Erlotinib]
relative JC-1 red fluorescence
Details | 8 h | 16 h | 24 h | 32 h | 40 h | 48 h | 56 h | 64 h | 72 h
0.1 µM, coculture fibroblast: C12385 | 0.781 | 0.749 | 0.681 | 0.673 | 0.628 | 0.605 | 0.558 | 0.552 | 0.537
0.1 µM, coculture fibroblast: H6013 | 0.9027 | 0.847 | 0.822 | 0.809 | 0.776 | 0.73 | 0.72 | 0.686 | 0.637
0.1 µM, coculture fibroblast: H6019 | 0.749 | 0.6955 | 0.626 | 0.629 | 0.584 | 0.567 | 0.518 | 0.502 | 0.463
0.1 µM, coculture fibroblast: H6076 | 0.8927 | 0.814 | 0.747 | 0.714 | 0.676 | 0.642 | 0.611 | 0.582 | 0.5672
0.1 µM, coculture fibroblast: H6231 | 0.913 | 0.894 | 0.822 | 0.764 | 0.72 | 0.677 | 0.633 | 0.61 | 0.571
0.1 µM, coculture fibroblast: HADF | 0.894 | 0.8356 | 0.789 | 0.753 | 0.716 | 0.673 | 0.671 | 0.655 | 0.61603
0.1 µM, coculture fibroblast: HCFa | 0.895 | 0.824 | 0.786 | 0.763 | 0.72 | 0.684 | 0.654 | 0.634 | 0.595
0.1 µM, coculture fibroblast: HCPF | 0.927 | 0.821 | 0.739 | 0.711 | 0.651 | 0.602 | 0.567 | 0.537 | 0.512
0.1 µM, coculture fibroblast: HHSteC | 0.9002 | 0.853 | 0.8046 | 0.7487 | 0.704 | 0.669 | 0.626 | 0.601 | 0.557
0.1 µM, coculture fibroblast: HMF | 0.8681 | 0.7951 | 0.729 | 0.6903 | 0.6496 | 0.608 | 0.567 | 0.545 | 0.527
0.1 µM, coculture fibroblast: HPFa | 0.9431 | 0.8898 | 0.8211 | 0.7764 | 0.7513 | 0.722 | 0.662 | 0.625 | 0.5619
0.1 µM, coculture fibroblast: HUF | 0.865 | 0.805 | 0.868 | 0.791 | 0.762 | 0.763 | 0.724 | 0.737 | 0.735
0.1 µM, coculture fibroblast: Hs5 | 0.912 | 0.847 | 0.796 | 0.752 | 0.703 | 0.647 | 0.602 | 0.569 | 0.542
0.1 µM, coculture fibroblast: Hs27A | 0.8816 | 0.82687 | 0.792 | 0.754 | 0.701 | 0.605 | 0.637 | 0.615 | 0.563
0.1 µM, coculture fibroblast: Hs343T | 0.895 | 0.82 | 0.762 | 0.723 | 0.675 | 0.63 | 0.58 | 0.556 | 0.527
0.1 µM, coculture fibroblast: WS1 | 0.758 | 0.701 | 0.586 | 0.591 | 0.545 | 0.513 | 0.46 | 0.446 | 0.421
1 µM, coculture fibroblast: C12385 | 0.7689 | 0.77 | 0.704 | 0.7247 | 0.593 | 0.421 | 0.401 | 0.414 | 0.413
1 µM, coculture fibroblast: H6013 | 0.906 | 0.854 | 0.8145 | 0.804 | 0.782 | 0.758 | 0.7703 | 0.7343 | 0.6943
1 µM, coculture fibroblast: H6019 | 0.78 | 0.768 | 0.752 | 0.765 | 0.727 | 0.7294 | 0.696 | 0.688 | 0.64
1 µM, coculture fibroblast: H6076 | 0.8979 | 0.8488 | 0.8345 | 0.81632 | 0.7856 | 0.7578 | 0.743 | 0.7159 | 0.7044
1 µM, coculture fibroblast: H6231 | 0.94 | 0.887 | 0.868 | 0.841 | 0.803 | 0.773 | 0.75 | 0.738 | 0.71
1 µM, coculture fibroblast: HADF | 0.9239 | 0.8763 | 0.8471 | 0.824 | 0.783 | 0.732 | 0.734 | 0.722 | 0.68
1 µM, coculture fibroblast: HCFa | 0.9017 | 0.842 | 0.823 | 0.795 | 0.747 | 0.71 | 0.684 | 0.664 | 0.622
1 µM, coculture fibroblast: HCPF | 0.879 | 0.838 | 0.818 | 0.806 | 0.75 | 0.717 | 0.693 | 0.652 | 0.638
1 µM, coculture fibroblast: HHSteC | 0.8968 | 0.874 | 0.851 | 0.826 | 0.803 | 0.776 | 0.745 | 0.728 | 0.688
1 µM, coculture fibroblast: HMF | 0.8742 | 0.844 | 0.848 | 0.829 | 0.808 | 0.789 | 0.782 | 0.776 | 0.762
1 µM, coculture fibroblast: HPFa | 0.935 | 0.9103 | 0.8783 | 0.8337 | 0.818 | 0.793 | 0.7489 | 0.7254 | 0.6854
1 µM, coculture fibroblast: HUF | 0.85 | 0.762 | 0.772 | 0.7089 | 0.6593 | 0.648 | 0.613 | 0.588 | 0.569
1 µM, coculture fibroblast: Hs5 | 0.9 | 0.859 | 0.843 | 0.804 | 0.777 | 0.735 | 0.711 | 0.684 | 0.66
1 µM, coculture fibroblast: Hs27A | 0.89636 | 0.869 | 0.842 | 0.822 | 0.781 | 0.702 | 0.723 | 0.7 | 0.656
1 µM, coculture fibroblast: Hs343T | 0.88 | 0.823 | 0.803 | 0.777 | 0.7351 | 0.69559 | 0.6688 | 0.6523 | 0.634
1 µM, coculture fibroblast: WS1 | 0.7483 | 0.743 | 0.6508 | 0.683 | 0.671 | 0.649 | 0.616 | 0.597 | 0.566
